Experimental data reported in article PMC6262455 (Cells, 2018).

Test system: human colon adenocarcinoma cell line (LoVo)
Assay: cells
Format: cell-based
Details: 72 h, read-out: IC50 LoVo
Excerpt: The BALB/3T3 cell line was purchased from the American Type Culture Collection (ATCC, Manassas, VA, USA), A549 and MCF-7 cell lines—from European Collection of Authenticated Cell Cultures (Salisbury, UK). The LoVo cell line was purchased from the American Type Culture Collection (ATCC, Manassas, VA, USA), and LoVo/DX by courtesy of Prof. E. Borowski (Technical University of Gdańsk, Gdańsk, Poland). All the cell lines are maintained in the Institute of Immunology and Experimental Therapy (IIET), Wroclaw, Poland. […]
After 72 h of incubation with the tested compounds, cells were fixed in situ by gently adding 50 μL per well of cold 50% trichloroacetic acid TCA (POCh, Gliwice, Poland) and were incubated at 4 °C for one hour. […] Absorbance of each solution was read at Synergy H4 Hybrid Multi-Mode Microplate Reader (BioTek Instruments, Inc., Winooski, VT, USA) at the 540 nm wavelength.
IC50 values were calculated in Cheburator 0.4, Dmitry Nevozhay software (version 1.2.0 software by Dmitry Nevozhay, 2004–2014, http://www.cheburator.nevozhay.com, freely available) for each experiment. […] The Resistance Index (RI) was defined as the ratio of IC50 for a given compound calculated for resistant cell line to that measured for its parental drug sensitive cell line (Table 1).

COc1cc2c(c(OC)c1OC)-c1ccc(OC)c(=O)cc1[C@@H](NC(C)=O)CC2 [Compound 1, Colchicine, reference compound]
IC50: 108 ± 25 nM
